These are yes or no findings as the source states them, for the method shown. Binding seen in cells or lysates may run through a third protein. Some entries that bind do so weakly or less than the wild type. For some of these results: Sequences can lack the tags named with a protein.
Key:
Test in all cases: co-IP; NaV1.2-expressing HEK293 cells transfected with FLAG-tagged β-subunit (or FLAG-tagged BAP); anti-FLAG M2 Affinity Gel, 4 °C, 2 h; blot with anti-panNaV
[1] = target: FLAG-tagged NaV β1-subunit (SCN1B) (UniProt Q07699)
[2] = target: FLAG-tagged NaV β2-subunit (SCN2B) (UniProt O60939)
[3] = target: T1, FLAG-tagged NaV β3-subunit (SCN3B) (UniProt Q9NY72)
T1 sequence: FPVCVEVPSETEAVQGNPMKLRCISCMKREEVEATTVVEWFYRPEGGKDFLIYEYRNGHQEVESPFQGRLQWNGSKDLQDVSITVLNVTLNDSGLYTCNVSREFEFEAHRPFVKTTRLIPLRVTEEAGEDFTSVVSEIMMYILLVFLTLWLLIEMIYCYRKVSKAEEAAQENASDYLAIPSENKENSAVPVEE

Chains of the proteins cited; added tags and fusions are not shown. Residues count along the entry.
UniProt Q07699, residues 19-218: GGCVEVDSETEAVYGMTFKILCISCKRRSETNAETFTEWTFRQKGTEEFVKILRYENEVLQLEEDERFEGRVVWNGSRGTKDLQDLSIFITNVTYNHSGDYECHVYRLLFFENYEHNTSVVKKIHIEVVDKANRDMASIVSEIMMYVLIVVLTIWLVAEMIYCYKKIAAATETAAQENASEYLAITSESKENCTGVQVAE
UniProt O60939, residues 30-215: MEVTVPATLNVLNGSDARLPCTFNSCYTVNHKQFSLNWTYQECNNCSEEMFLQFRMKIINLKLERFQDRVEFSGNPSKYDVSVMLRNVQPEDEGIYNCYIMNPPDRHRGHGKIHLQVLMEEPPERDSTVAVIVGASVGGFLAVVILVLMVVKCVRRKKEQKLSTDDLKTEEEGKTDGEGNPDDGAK
UniProt Q99250: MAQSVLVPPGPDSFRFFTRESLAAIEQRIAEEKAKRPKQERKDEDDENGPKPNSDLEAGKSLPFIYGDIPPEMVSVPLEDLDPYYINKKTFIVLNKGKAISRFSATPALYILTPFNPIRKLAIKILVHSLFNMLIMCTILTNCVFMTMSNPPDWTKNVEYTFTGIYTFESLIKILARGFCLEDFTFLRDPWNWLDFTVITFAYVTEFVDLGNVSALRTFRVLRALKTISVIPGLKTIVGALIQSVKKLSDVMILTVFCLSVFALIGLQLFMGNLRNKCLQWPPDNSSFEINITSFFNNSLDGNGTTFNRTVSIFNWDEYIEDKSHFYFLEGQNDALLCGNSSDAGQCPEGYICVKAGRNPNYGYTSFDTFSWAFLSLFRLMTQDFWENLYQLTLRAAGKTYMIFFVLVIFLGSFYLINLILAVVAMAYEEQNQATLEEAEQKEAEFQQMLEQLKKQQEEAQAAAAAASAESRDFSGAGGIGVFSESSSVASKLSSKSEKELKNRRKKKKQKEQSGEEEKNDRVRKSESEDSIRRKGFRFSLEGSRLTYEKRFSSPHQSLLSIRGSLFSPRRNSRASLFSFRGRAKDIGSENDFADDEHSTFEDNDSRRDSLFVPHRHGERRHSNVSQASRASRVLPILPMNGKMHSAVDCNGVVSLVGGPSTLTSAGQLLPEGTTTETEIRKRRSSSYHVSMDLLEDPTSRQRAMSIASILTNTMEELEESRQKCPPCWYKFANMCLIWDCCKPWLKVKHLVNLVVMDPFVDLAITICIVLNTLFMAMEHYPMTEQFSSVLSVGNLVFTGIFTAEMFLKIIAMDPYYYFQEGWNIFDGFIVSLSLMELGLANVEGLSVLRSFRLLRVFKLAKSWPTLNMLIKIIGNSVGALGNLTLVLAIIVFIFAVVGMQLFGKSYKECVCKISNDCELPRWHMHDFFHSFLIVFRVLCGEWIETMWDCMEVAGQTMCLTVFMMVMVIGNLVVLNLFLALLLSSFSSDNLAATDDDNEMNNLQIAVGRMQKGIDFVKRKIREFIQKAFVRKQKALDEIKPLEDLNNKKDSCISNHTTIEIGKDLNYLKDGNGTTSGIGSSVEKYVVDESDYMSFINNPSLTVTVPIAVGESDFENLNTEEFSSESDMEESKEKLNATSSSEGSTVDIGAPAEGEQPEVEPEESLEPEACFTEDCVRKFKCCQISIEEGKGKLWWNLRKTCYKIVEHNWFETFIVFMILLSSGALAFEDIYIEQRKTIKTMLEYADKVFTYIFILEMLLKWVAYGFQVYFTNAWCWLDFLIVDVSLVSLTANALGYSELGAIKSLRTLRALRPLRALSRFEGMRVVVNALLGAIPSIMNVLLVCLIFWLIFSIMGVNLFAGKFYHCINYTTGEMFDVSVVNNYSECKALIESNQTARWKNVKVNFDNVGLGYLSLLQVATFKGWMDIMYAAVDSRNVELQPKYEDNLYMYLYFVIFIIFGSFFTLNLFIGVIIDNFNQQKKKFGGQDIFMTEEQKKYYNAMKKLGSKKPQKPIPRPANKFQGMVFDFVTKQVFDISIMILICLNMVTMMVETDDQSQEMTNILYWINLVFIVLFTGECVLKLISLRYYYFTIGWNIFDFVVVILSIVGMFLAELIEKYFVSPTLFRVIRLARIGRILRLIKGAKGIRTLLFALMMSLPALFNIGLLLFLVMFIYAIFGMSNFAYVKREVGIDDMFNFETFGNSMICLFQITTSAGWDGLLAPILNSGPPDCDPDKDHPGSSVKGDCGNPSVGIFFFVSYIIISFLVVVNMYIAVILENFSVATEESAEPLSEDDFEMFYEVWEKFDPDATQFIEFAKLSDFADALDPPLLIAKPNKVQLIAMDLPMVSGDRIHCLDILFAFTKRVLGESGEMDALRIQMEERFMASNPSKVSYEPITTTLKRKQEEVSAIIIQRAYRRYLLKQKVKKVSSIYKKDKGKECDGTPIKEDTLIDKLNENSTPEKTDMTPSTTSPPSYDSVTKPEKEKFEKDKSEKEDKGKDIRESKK

[4] = target: T2, FLAG-tagged NaV β4-subunit (SCN4B) (UniProt Q8IWT1)
T2 sequence: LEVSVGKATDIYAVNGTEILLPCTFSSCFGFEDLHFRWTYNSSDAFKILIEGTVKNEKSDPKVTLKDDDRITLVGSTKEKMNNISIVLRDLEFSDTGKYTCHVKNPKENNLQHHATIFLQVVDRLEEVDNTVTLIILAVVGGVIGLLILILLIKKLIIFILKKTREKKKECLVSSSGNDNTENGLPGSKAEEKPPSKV

Measured: binding

human NaV1.2 α-subunit (SCN2A) (from UniProt Q99250 1-2005)
binds: all assays above
